Test results reported in article PMC3102714, “OsSpo11-4, a Rice Homologue of the Archaeal TopVIA Protein, Mediates Double-Strand DNA Cleavage and Interacts with OsTopVIB” (PLoS ONE, 2011).
Results are given in words; binding and its absence hold for the method and conditions named. For some assays here: Binding can be weak; no strength is given. Sequences can lack the tags named with a protein.

What was measured:
[1] = target: T1, OsTopVIB (yeast two-hybrid fusion) (Oryza sativa L. ssp. japonica) (UniProt Q6H442); experiment: two-hybrid; … GAL4 Two-hybrid System 3; AD (pGADT7) and BD (pGBKT7) fusions co-transformed into yeast AH109; growth on QDO medium, then colony-lift filter assay with X-gal staining for 7 h
T1 sequence: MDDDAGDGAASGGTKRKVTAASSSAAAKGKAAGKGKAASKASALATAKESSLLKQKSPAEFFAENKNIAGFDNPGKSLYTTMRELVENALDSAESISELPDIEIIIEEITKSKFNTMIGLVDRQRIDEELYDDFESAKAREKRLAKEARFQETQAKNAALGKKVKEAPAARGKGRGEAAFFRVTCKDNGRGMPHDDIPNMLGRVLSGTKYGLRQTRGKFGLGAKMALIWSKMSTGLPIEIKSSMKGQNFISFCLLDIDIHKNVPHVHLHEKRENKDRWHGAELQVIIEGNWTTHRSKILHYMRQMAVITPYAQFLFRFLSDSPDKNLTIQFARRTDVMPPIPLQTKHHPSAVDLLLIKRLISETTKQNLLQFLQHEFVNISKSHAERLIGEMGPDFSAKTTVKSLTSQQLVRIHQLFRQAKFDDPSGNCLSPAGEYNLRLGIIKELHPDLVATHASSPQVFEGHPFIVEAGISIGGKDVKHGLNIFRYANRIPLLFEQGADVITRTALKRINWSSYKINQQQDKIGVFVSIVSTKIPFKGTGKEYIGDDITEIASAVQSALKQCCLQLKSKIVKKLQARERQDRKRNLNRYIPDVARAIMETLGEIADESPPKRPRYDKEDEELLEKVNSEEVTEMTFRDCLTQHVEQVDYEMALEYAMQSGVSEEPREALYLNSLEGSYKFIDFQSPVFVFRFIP

[2] = target: T2, OsSpo11-1 (yeast two-hybrid fusion) (Oryza sativa L. ssp. japonica) (UniProt Q7Y021); experiment: as above
T2 sequence: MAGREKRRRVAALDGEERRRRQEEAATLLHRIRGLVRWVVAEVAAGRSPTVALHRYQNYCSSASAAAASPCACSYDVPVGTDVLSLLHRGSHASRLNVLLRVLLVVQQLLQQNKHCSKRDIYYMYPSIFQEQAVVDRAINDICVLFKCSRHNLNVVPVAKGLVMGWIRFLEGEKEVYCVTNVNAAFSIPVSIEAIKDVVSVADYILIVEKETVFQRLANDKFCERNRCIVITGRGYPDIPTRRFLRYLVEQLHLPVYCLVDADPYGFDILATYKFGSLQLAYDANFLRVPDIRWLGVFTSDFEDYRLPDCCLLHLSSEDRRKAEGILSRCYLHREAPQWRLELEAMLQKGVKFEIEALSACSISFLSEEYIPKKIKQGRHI

Row | Substance | binding [1] | binding [2]
1 | OsSpo11-5 (yeast two-hybrid fusion, full-length protein) (from UniProt D1MIY4) | no binding | –
2 | OsSpo11-5N, N-terminal extension of 412 amino acids of OsSpo11-5 (yeast two-hybrid fusion) (Oryza sativa L. ssp. japonica) (domain or fragment) | – | binds weakly
